Experimental data published in publication PMC12040169 (PLOS Biology, 2025).
The other results are listed elsewhere or left out.

These compounds were tested on T1, CTL2-GFP (C. trachomatis L2/434/Bu, GFP-expressing). Conditions: bulk GFP, single well; 28.5 h, 10 µM; inhibitor.
T1 construct: L2/434/Bu, GFP-expressing
Set-up: species or system HeLa; Intracellular C. trachomatis growth in HeLa cells, bulk GFP fluorescence relative to DMSO

SMILES	% of control remaining [%]
CC(C)[C@H](CO)Nc1nc(-c2ccccc2)cnc1N [CBK063933]	72.9219
C=CCn1c(Cc2csc(NC(=O)Cc3cc(OC)c(OC)c(OC)c3)n2)n[nH]c1=S [CBK295311]	136.047
O=C1NC[C@@H](CCC(=O)N2CCCC2)N2C[C@@H](NC(=S)Nc3ccccc3)C[C@@H]12 [CBK289004]	107.033
Cc1ccccc1NC(=O)c1ccc(Br)o1 [CBK107152]	102.772
Cc1ccc(C)c2c1c1nc3ccccc3nc1n2Cc1nnc(-c2ccccc2)o1 [CBK268677]	148.737
COc1nccnc1-c1ccc(Cl)c(Cl)c1 [CBK107110]	129.567
C[C@H](Nc1nc(-c2cc(C(F)(F)F)cc(C(F)(F)F)c2)cnc1N)c1ccccc1 [CBK063768]	103.794
CCn1c(=O)n(CC2(O)CCCOC2)c2cc(S(=O)(=O)N(C)C)ccc21 (stereo not shown) [CBK304788]	121.618
OC(CSc1ccccc1)CN1CCN(Cc2ccc3c(c2)OCO3)CC1 (stereo not shown) [CBK074761]	129.884
COc1ccc(SCCCCN2CCC3(CC2)OCCc2c3[nH]c3ccccc23)cc1 [CBK113464T]	25.3288
O=C(NC(=O)C1CCNCC1)Nc1ccccc1 [CBK034794]	121.365
CC(C)CC(=O)N1CCC(n2c(=O)oc3ccc(Cl)cc32)CC1 [CBK285477]	88.9928
CN(C)CC(=O)N1CCc2nc(-c3cccc(F)c3)sc2C1 [CBK281801]	116.99
CCOc1ccc(Cl)cc1CN(C)C(=O)NCC(C)CN(C)C (stereo not shown) [CBK307500]	97.4386
CCn1ncc(Br)c1C(=O)Nc1ccc(Cl)cn1 [CBK265826]	131.381
Cc1cc([N+](=O)[O-])ccc1/N=C\c1ccc(C(=O)O)cc1 [CBK262058]	99.0342
COC(=O)[C@H]1CN(C(=O)c2cccnc2)C[C@@H]1c1ccc(F)cc1 [CBK283788]	157.368
O=C(NCC1(c2ccccc2F)CCCC1)c1cc[nH]c(=O)c1 [CBK281378]	103.949
O=S(=O)(NCCSCc1ccco1)c1ccc(Cl)cc1 [CBK232206]	132.395
O=[N+]([O-])c1ccc(CN2CCC(Oc3nccnc3OCc3ccc(Cl)c(Cl)c3)CC2)cc1 [CBK083107T]	82.411
CCNS(=O)(=O)c1ccc2c(c1)N(Cc1cccnc1C)CC2 [CBK306020]	145.009
COc1ccc(-c2c(-c3ccc(O)cc3O)n[nH]c2C)cc1OC [CBK265552]	113.721
Cc1ccc2oc(-c3cc(NC(=S)NC(=O)c4ccc([N+](=O)[O-])cc4)ccc3O)nc2c1 [CBK263923]	135.825
Cc1nn(C)cc1CN(Cc1ccccc1F)CC1CCCO1 (stereo not shown) [CBK283014]	83.0405
CC(=O)OC1CCn2c1nc1ccccc12 (stereo not shown) [CBK113621]	101.16
CCCC(C(=O)NCCN(C)C1CCCCC1)n1nc(C)cc1C (stereo not shown) [CBK282039]	172.934
CC1CC(C)CN(C(=O)Cn2c(-c3nonc3N)nc3ccccc32)C1 (stereo not shown) [CBK264694]	127.628

Grouped by structure: the entries above with bromine.
SMILES	% of control remaining [%]
Cc1ccccc1NC(=O)c1ccc(Br)o1 [CBK107152]	102.772
CCn1ncc(Br)c1C(=O)Nc1ccc(Cl)cn1 [CBK265826]	131.381

(more compounds)

SMILES	% of control remaining [%]
CCCn1ccc(CNCC(c2ccnn2C)C(C)C)c1 (stereo not shown) [CBK304861]	119.478
O=C(Oc1cccc(/C=N/NC(=O)c2ccccn2)c1)c1cccc(Br)c1 [CBK262115]	92.5457
Cc1cc(N2CCCN(C(=O)CCCOc3ccccc3)CC2)ccn1 [CBK307052]	122.667
CCCN1CCCN(c2ccc(-n3ccc(C)n3)nn2)CC1 [CBK306304]	113.852
O=C(C1CCCC1)N1CCCCC1c1n[nH]cc1-c1ccncc1 (stereo not shown) [CBK283427]	139.764
COc1cccc(/C=C2/NC(=O)N(Cc3ccc(F)cc3)C2=O)c1OCc1cccc(C(=O)O)c1 [CBK265282]	115.895
COc1ccc(N2CCN(c3cc(-c4cccc(NC(C)=O)c4)ncn3)CC2)cc1OC [CBK091029]	148.966
N#CC(CC(=O)O)C(Cc1ccccc1)c1ccccc1 (stereo not shown) [CBK286837]	107.373
CCNC(=O)Nc1cc2cccnc2nc1-c1ccc(S(C)(=O)=O)cc1 [CBK070706]	109.243
Nc1ccc2c(c1)/C(=C/c1c[nH]c3ncccc13)C(=O)N2 [CBK010155T]	153.99
Cc1ccc(O)cc1CC[C@@H]1CC(=O)CC2(C)C1CC[C@]2(O)C(=O)COC(=O)CCC(=O)O (stereo partly shown) [CBK007270]	139.352
Cc1cc(C(=O)N2C3CCC2CC(O)(c2ccnn2C)C3)sc1C (stereo not shown) [CBK284518]	90.9358
c1cnc(N2CCCC2)c(OC2CCOC2)n1 (stereo not shown) [CBK115891]	110.468
COc1ccccc1N/C(=N\OCc1ccc(Cl)cc1Cl)c1nonc1N [CBK018391]	78.5131
O=S(=O)(NC1CCCCC1Sc1nnc(Nc2ccccc2)s1)c1ccccc1 (stereo not shown) [CBK266378]	140.636
COc1cccc(C2(NC(=O)CCn3nc(C)cc3C)CCCC2)c1 [CBK283749]	109.722
CCn1c(CN2CCOCC2)nnc1SCC(=O)Nc1cc(Cl)ccc1C [CBK270183]	148.009
COc1cc(/C=c2\sc3nc(-c4ccccc4OC(C)=O)nn3c2=O)ccc1OCc1ccccc1 [CBK264575]	123.439
O=C1CC(c2ccccc2)CC(=O)N1c1nnn[nH]1 [CBK291154]	151.551
COc1cc(-c2cn3ccnc3c(NCC3CC3)n2)ccc1O [CBK037538]	157.202
Cc1nc2nc(N)nn2c(C)c1CCC(=O)NCc1cccc(Cl)c1 [CBK304993]	83.7872
O=C(NC(NC(=O)c1ccccc1F)c1ccc2c(c1)OCO2)c1ccccc1F [CBK265742]	119.738
Cc1nc(S(=O)(=O)CCn2cccn2)n(C2CCCCC2)c1C [CBK305217]	84.5184
Cc1cc(C)nc(NC(=N)NCc2ccccc2)n1 [CBK288157]	100.469
CC1CCCCN1C(=O)Cn1c(C2CCOCC2)cc2cccnc21 (stereo not shown) [CBK284675]	108.088
Cc1cc(Oc2ccccc2)nc(NCc2ccccc2)n1 [CBK003557]	97.092
Cn1c(SCC(=O)N2CCN(c3ccccc3)CC2)nc2cc(Cl)ccc21 [CBK298295]	157.508

Given comma-delimited: entries from further up
SMILES,% of control remaining [%]
Cc1nc2nc(N)nn2c(C)c1CCC(=O)NCc1cccc(Cl)c1 [CBK304993],83.7872
O=C(NC(NC(=O)c1ccccc1F)c1ccc2c(c1)OCO2)c1ccccc1F [CBK265742],119.738

(cont.)

SMILES	% of control remaining [%]
CC(C)(C)OC(=O)N1CCC[C@H]([C@H](O)c2cccs2)C1 [CBK282301]	142.949
OCCN(CCO)c1cncc(-c2cccc(C(F)(F)F)c2)n1 [CBK037917]	116.343
O=c1nc2c(cn1[C@H]1C[C@@H](O)[C@@H](CO)O1)Sc1ccccc1N2 [CBK201237]	196.987
CNC(=O)CSc1nc2ccccc2nc1C(F)(F)F [CBK107206]	100.797
Nc1ncc(-c2ccc3c(c2)OCO3)nc1-c1ccc(O)cc1 [CBK122505]	77.8919
Cc1ccc(OCC(=O)O/N=C(\N)c2ccccn2)cc1C [CBK264755]	131.274
CCOc1cc(/C=C2\SC(=S)N(Cc3cccnc3)C2=O)ccc1OCc1cccc(F)c1 [CBK264615]	90.7109
COc1ncccc1CNC(=O)Nc1cccn(CC(F)(F)F)c1=O [CBK305216]	85.8906
Cc1nn(C(C)CC(=O)N2CCCC(CN(C)C)C2)c(C)c1Cl (stereo not shown) [CBK282137]	122.856
COc1ccc(/C=N/NS(C)(=O)=O)cc1 [CBK261981]	110.755
COc1ccc(C(C)NC(=O)c2cc(-c3ccc(F)cc3)[nH]n2)cc1 (stereo not shown) [CBK288060]	133.848
CC(C)C(=O)Nc1cc2ccccc2c(-c2ccc(OCc3ccccc3)c(F)c2)n1 [CBK073783]	105.638
Cc1ccc2[nH]c3nc(N/N=C/c4ccc(-c5cccc([N+](=O)[O-])c5)o4)nnc3c2c1 [CBK262365]	109.669
O=C(c1c(NS(=O)(=O)c2cccc3cccnc23)sc2c1CCCC2)N1CCOCC1 [CBK028655]	107.067
CCn1cc(S(=O)(=O)NCC2(c3ccccc3)CCCC2)cn1 [CBK282768]	138.606
CC(C)Oc1ncccc1OCCO [CBK001465]	101.395
COc1ccccc1N1CCN(C(=O)NCCC(C)C)CC1 [CBK155611]	91.8584
CC(=O)c1cc2c(cc1NC(=O)CSc1nc3ccccc3[nH]1)OCO2 [CBK266110]	79.9162
COC(=O)c1ccc(Cl)c(NC(=O)CSc2nnc(-c3ccncc3)[nH]2)c1 [CBK268702]	163.215
CCOC(=O)c1cnc(SCCc2ccccc2)nc1N [CBK085871]	99.5073
CCNc1cc(-c2cncc(OC)c2)ncn1 [CBK090881]	145.017
NC(=O)N/N=C/c1ccncc1 [CBK260922]	111.489
N#CC1=C(N)n2c(s/c(=C\c3ccc(O)cc3)c2=O)=C(C#N)C1c1ccc(O)cc1 (stereo not shown) [CBK217780]	100
Cc1cc(C(C)(C)C)cc(S(=O)(=O)Nc2ccc(O)c(C(=O)O)c2)c1C [CBK266196]	216.587
CC(=O)N1CCC2(CCCC[C@H]3CN(C(=O)CCC(C)C)CC[C@@H]3NC(=O)CNC2=O)CC1 [CBK292124]	107.993
